This note sets out measurements from patent US20260063643A1.

These are yes or no findings as the source states them, for the method shown. Some entries that bind do so weakly or less than the wild type.

This assay deals with T1, human RANKL (soluble) (human) (UniProt O14788).
T1 sequence: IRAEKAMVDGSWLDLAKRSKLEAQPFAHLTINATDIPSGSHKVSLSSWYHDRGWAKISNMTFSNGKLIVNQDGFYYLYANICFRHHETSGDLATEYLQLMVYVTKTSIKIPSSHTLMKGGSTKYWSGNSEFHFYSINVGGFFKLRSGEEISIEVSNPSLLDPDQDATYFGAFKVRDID
The experiment in a line: MSD bridging ECL assay on Study A serum samples treated with OPG.

B1: osteoprotegerin (OPG) (receptor)
chain: ETFPPKYLHYDEETSHQLLCDKCPPGTYLKQHCTAKWKTVCAPCPDHYYTDSWHTSDECLYCSPVCKELQYVKQECNRTHNRVCECKEGRYLEIEFCLKHRSCPPGFGVVQAGTPERNTVCKRCPDGFFSNETSSKAPCRKHTNCSVFGLLLTQKGNATHDNICSGNSESTQKCGIDVTLCEEAFFRFAVPTKFTPNWLSVLVDNLPGTKVNAESVERIKRQHSSQEQTFQLLKLWKHQNKDQDIVKKIIQDIDLCENSVQRHIGHANLTFEQLRSLMESLPGKKVGAEDIEKTIKACKPSDQILKLLSLWRIKNGDQDTLKGLMHALKHSKTYHFPKTVTQSLKKTIRFLHSFTMYKLYQKLFLEMIGNQVQSVKISCL
In the case of B1, the binding entry is reported as “binds”.
